Data as given in paper PMC10163288.
The list shows a part of the results.

B1: il2ra_site1_2b5i_sap_7_mot_HHH_b2_01200_af2_000000093_0001_1_18_H_._HHH_b1_06018_af2_0001_0000200009_0000001_0_0001 (protein)
chain: SSSSSSEEEVDELFREASELWRKGDLERAREVLKEAEELAKELGDENTLKDLEFMLEWIRSSSSS
B2: il2ra_site1_2b5i_normal_mot_HHH_b2_04910_000000118_0001_1_19_H_._HHH_b2_07216_0001_0000100001_0000001_1_af2pred_0001_af2pred (protein)
chain: SSSSTELTREAFELLEEANKLFHNGDPEEAERTLEEALEIARQGGSKSLARSIEAALRLLDSSSS
B3: il2ra_site2_3nfp_normal_mot_HHH_b1_04762_000000120_0001_42_54_H_._HHH_b1_01332_af2_0001_0000100001_0000001_0 (protein)
chain: SSSSSDSEEYLRAALLLAREAIKRGDKELAEKHLRLIAKLAEDAKDEEALKEAEELLEEVGSSSS
B4: il2ra_site1_2b5i_normal_mot_22370d59370c406a0c205a431f537cfa_0001_af2_000000141_0001_1_31_H_._0fe4f1796e7c9b039ee44eb4e8059732_0001_0001_0000100009_0000001_1_af … (protein)
chain: EEELLAALKALLDVPEEEAQELLRLHREADATGDPELARRLVDLVWRLSKGDVNKLTAVHKLLAP
B5: il2ra_site1_1z92_sap_18_mot_HHH_b2_07834_af2_000000183_0001_23_39_H_._HHH_b1_07060_0001_0000100003_0000001_0_0001_af2pred_0001_af2pred (protein)
chain: SSSSSSDRELEEFIERLVEELGLSEEEEKLLRRLLERLEEAGFSERSIRRALELLARRLSSSSSS
B6: il2ra_site2_2erj_sap_27_mot_HHH_b2_05955_000000258_0001_43_57_H_._d3e4cb6529674e0fd0d92c6b70156c02_0001_af2_0001_0000200012_0000001_0_0001 (protein)
chain: SSSSSEAYRKIALEVFELAEEYARKGDPRYRERIEELLEEAEEAGDPALERYIELVLEELSSSSS
B7: il2ra_site1_2b5i_sap_9_mot_HHH_b2_04545_af2_000000008_0001_21_36_H_._HHH_b1_00929_0001_0000500025_0000001_0_0001_af2pred_dldesign_0_af2pred (protein)
chain: SSSSSRFEDRVLAQAREAFEELLAEGDREGLAKLLAELEALRDLTRSPRIAAFLAEMRARLSSSS
B8: il2ra_site1_3nfp_normal_mot_HHH_b1_01335_af2_000000105_0001_39_53_H_._22a4c3b3a30f3048295c297a9f883f79_0001_0001_0000700027_0000001_0_af2pred_0001_af2pred_1 (protein)
chain: SEAEEVLRELREAFKDDPEVERVLEEIKEAAEKGDARLVSRLLRRLEEVLGDPKLVERLMRVLAK
B9: il2ra_site2_3nfp_sap_20_mot_HHH_b1_04032_000000208_0001_43_56_H_._HHH_b2_08352_af2_0001_0000400042_0000001_0_0001 (protein)
chain: SSSSDTEEYLRAVLALAKEALENGDPEFARRLAELALQAAEDANDPELFEEIRELLEEIEGSSSS
B10: il2ra_site1_2b5i_sap_16_mot_HHH_b2_06557_000000121_0001_42_56_H_._HHH_b1_04909_0001_0000700040_0000001_0_0001_af2pred_dldesign_0_af2pred (protein)
chain: SSSSSSDEVYDLFKEAERLRREGKKEEAKKLLEKAIELAKKLGETKKVEELEYLLKNLSSSSSSS
B11: il2ra_site2_3nfp_normal_mot_HHH_b2_04451_000000238_0001_21_37_H_._HHH_b1_00607_af2_0001_0000100014_0000001_0 (protein)
chain: SSSSSDEERVEELEEQIKRAEEEGDRAEVLRLLAEVTRLAAKAGDEELARRVLELFEKLQSSSSS
B12: il2ra_site1_3nfp_sap_13_mot_HHH_b1_04931_000000291_0001_38_56_H_._HHH_b2_07276_0001_0000200010_0000001_0_0001 (protein)
chain: SSSSSDYEELERLFREIFELAKKGDHEEARRLIEELEELAHEANNEFMEQAVKQLKKTVNSSSSS
B13: il2ra_site1_2b5i_sap_11_mot_HHH_b1_08027_af2_000000009_0001_1_17_H_._HHH_b2_04458_af2_0001_0000100003_0000001_0_0001 (protein)
chain: SSSSDRELTRAAVRIVWRLMYRLNLDREEAQLLNRLAAELVDRGVSPEELEEILREYAEEISSSS
B14: il2ra_site2_2erj_sap_21_mot_HHH_b2_08364_000000146_0001_1_19_H_._19cb7799addf660ec2645d5c0312015a_0001_1_0001_0000300017_0000001_0_0001_af2pred_0001_af2pred (protein)
chain: SSSSSEDEEEVKKLLEEAKRIEDPERATELVIEAFQIALEINNEELLREIHKLSRELYHGSSSSS
B15: il2ra_site1_1z92_normal_mot_HHH_b1_07526_000000113_0001_40_57_H_._HHH_b1_02791_af2_0001_0000100008_0000001_0_af2pred_0001_af2pred_1 (protein)
chain: SSSSDSEERLRELIEELVRELGLSERDEKNLEKLLEWALELGADEEDIERALRHFARALRGSSSS
B16: il2ra_site1_2b5i_sap_20_mot_HHH_b1_06515_af2_000000249_0001_1_17_H_._HHH_b1_03551_af2_0001_0000500037_0000001_0_0001 (protein)
chain: SSSDEEELAHIAAEIVARLFYRFGLSAEQSQELDRVASELAEEGVSPEEVEEILRRVAEELSSSS
B17: il2ra_site1_2b5i_sap_18_mot_098064ffb003ae9d220488cec4d80c2b_0001_af2_000000106_0001_17_32_H_._HEEHE_2699_0001_0000100017_0000001_1_0001_af2pred_dldesign_0_af2p … (protein)
chain: SSSSSSDEAERLFEEAKRLKAAGKRREALEALERAAKLADAAGREDLRDEIEAFAKTVSSSSSSS
B18: il2ra_site2_3nfp_sap_17_mot_HHH_b2_07946_000000046_0001_20_36_H_._HHH_b2_06724_0001_0001200050_0000001_0_0001 (protein)
chain: SSSSSEVLEELERMIELAIQSARSLGDPEVEEKLEELLERLREEGDPRAALEAYELAARAYSSSS

Target: il2ra, P01589
Assay: yeast display titration

Apparent Kd, inactive:
B1 no binding seen
B2 no binding seen
B3 no binding seen
B4 no binding seen
B5 no binding seen
B6 no binding seen
B7 no binding seen
B8 no binding seen
B9 no binding seen
B10 no binding seen
B11 no binding seen
B12 no binding seen
B13 > 1.5 µM
B14 no binding seen
B15 no binding seen
B16 no binding seen
B17 no binding seen
B18 no binding seen

Retrieved one by one from the list above:
Apparent Kd, inactive:
B14 no binding seen
B5 no binding seen
